# According to PubChem BioAssay AID1487 (National Center for Advancing Translational Sciences (NCATS), 2009):
# Values joined by “and” are separate entries in the source; they are usually repeats but may differ in a detail not shown here. Equal entries are not always repeated. Some of the results follow. Shown are side measurements of this screen, not its main read-out; they come without a call. Compounds called inactive in the main read-out are mostly missing here. The note in brackets gives the kind of curve behind each potency; many fits are weak.
# Assay: qHTS Assay for Modulators of Lamin A Splicing
# Conditions: HeLa LMNA splicing GFP/RFP minigene ratio, 48 h
# In short: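 S3 HeLa cells stably expressing lamin A-EGFP splicing minigene plus DsRed2, 600 cells/well, 48 h compound exposure at 37C. Laser-scanning cytometry; analysed as GFP (500-530 nm)/RFP (575-640 nm) total intensity ratio; 0.5% DMSO vehicle.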
# [1] = measured here: RFP viability control channel
# [2] = measured here: GFP splicing reporter channel
Structure (SMILES),AC50 [1],AC50 [2]
COc1ccc(-c2cc(=O)c3c(O)c(OC)c(OC)c(OC)c3o2)cc1OC,"14.1 µM [rising, single point]",–
O=C(N/N=C/c1c[nH]c2ccccc12)c1[nH]c2ccc(Br)cc2c1-c1ccccc1,"22.4 µM [falling, single point]","20 µM [falling, partial curve]"
Cc1nn(Cc2ccc(Cl)c(Cl)c2)c(C)c1NC(=O)c1cc(-c2ccco2)on1,"11.2 µM [rising, single point]",–
COc1ccc(S(=O)(=O)NCCc2sc(-c3cccc(C)c3)nc2C)cc1,"35.5 µM [falling, single point]",–
Cc1cc(C)c2c3c(sc2n1)C(c1cccc(F)c1)C(C#N)=C(N)O3 (stereo not given),"17.8 µM [rising, single point]",–
CCc1ccc(-n2nc(C)c3c(C(=O)N4CCN(c5cccc(Cl)c5)CC4)cc(C)nc32)cc1,"15.8 µM [rising, partial curve, poor fit]",–
Cc1ccc(S(=O)(=O)N2c3ccccc3OCC2c2ccccc2)cc1 (stereo not given),"11.2 µM [rising, partial curve]",–
CCOc1cc(C(=O)OCc2cc(=O)n3nc(C4CC4)sc3n2)cc(OCC)c1OCC,"0.00501 µM [falling, full curve, poor fit]",–
Cc1ccc2nc(SCC(=O)Nc3ccc4c(c3)CCC4)[nH]c2c1,"14.1 µM [rising, single point]","11.2 µM [rising, single point]"
COc1ccccc1NC(=S)NCCC(c1ccccc1)c1ccccc1,"15.8 µM [rising, partial curve]","12.6 µM [rising, single point]"
CC(C)(C)C(=O)Nc1ccc(C(=O)N/N=C/c2ccccc2OC(=O)c2ccccc2)cc1,–,"14.1 µM [falling, single point]"
S=c1[nH]nc(-c2ccncc2)n1/N=C/C=C/c1ccco1,"1.41 µM [falling, full curve, poor fit]","0.447 µM [falling, full curve, poor fit]"
COc1ccccc1N1CCN(C(=O)CSc2nnc(NC(=O)C(C)C)s2)CC1,"0.0112 µM [falling, full curve, poor fit]",–
COc1ccccc1C(=O)C1CCCN(C(=O)c2cc(C(C)C)no2)C1 (stereo not given),"0.00501 µM [falling, full curve, poor fit]","7.94 µM [falling, partial curve, poor fit]"
Cc1ccc2cc(CN(CCN(C)C)C(=S)Nc3ccccc3)c(=O)[nH]c2c1C,–,"14.1 µM [falling, single point]"
CCCCCOC(=O)c1[nH]c2c(c1C)C(=O)CC(c1ccco1)C2 (stereo not given),"0.112 µM [rising, full curve]","22.4 µM [falling, single point]"
CC1=CC(=O)c2ccccc2C1=O,"11.2 µM [falling, single point] and 35.5 µM [falling, single point]","11.2 µM [falling, single point] and 1 µM [falling, full curve] and 15.8 µM [falling, single point]"
CCC(C)c1ccc(NC(=S)NCc2cccnc2)cc1 (stereo not given),"14.1 µM [rising, single point]",–
CSc1ccc(-c2nc3cnccn3c2Nc2ccc3c(c2)OCO3)cc1,"17.8 µM [rising, single point]","35.5 µM [rising, single point]"
CCCOc1ccc(Cc2c(Cl)nc(SC)nc2NC)cc1,"3.98 µM [rising, partial curve, poor fit]",–
O=S(=O)(Nc1ccc(-c2ccc(N3CCCC3)nn2)cc1)c1ccc(OC(F)(F)F)cc1,–,"0.0398 µM [falling, full curve, poor fit]"
Cc1ccccc1C(=O)Nc1sc2c(c1C(=O)O)CCC2,–,"2.51 µM [falling, single point]"
CCCCn1c(-c2ccccc2)cnc1SCC(=O)NCCc1ccc(OC)c(OC)c1,"17.8 µM [rising, single point]",–
CC12CCC(C(=O)N3CCN(C(c4ccccc4)c4ccccc4)CC3)(OC1=O)C2(C)C (stereo not given),"22.4 µM [rising, single point]",–
O=C(CC12CC3CC(CC(C3)C1)C2)NCO,–,"0.00562 µM [rising, full curve, poor fit]"
COc1cccc(CN2CCN(CCc3ccccc3)C(CCO)C2)c1OC (stereo not given),"4.47 µM [falling, full curve, poor fit]","4.47 µM [falling, full curve, poor fit]"
O=C1/C(=C/c2ccc(N3CCOCC3)o2)SC(=Nc2ccccc2)N1CCc1c[nH]c2ccccc12,"3.98 µM [falling, full curve]","7.08 µM [falling, full curve]"

# 4 entries drawn at random from the list so far:
Structure (SMILES),AC50 [1],AC50 [2]
CCCCn1c(-c2ccccc2)cnc1SCC(=O)NCCc1ccc(OC)c(OC)c1,"17.8 µM [rising, single point]",–
COc1ccccc1N1CCN(C(=O)CSc2nnc(NC(=O)C(C)C)s2)CC1,"0.0112 µM [falling, full curve, poor fit]",–
COc1ccc(S(=O)(=O)NCCc2sc(-c3cccc(C)c3)nc2C)cc1,"35.5 µM [falling, single point]",–
O=C(CC12CC3CC(CC(C3)C1)C2)NCO,–,"0.00562 µM [rising, full curve, poor fit]"

# (next part)

Structure (SMILES),AC50 [1],AC50 [2]
Cc1csc2nc(CCNS(=O)(=O)c3ccc(F)cc3)cn12,"0.158 µM [rising, full curve, poor fit]",–
CCOC(=O)Cn1nc(C)c(NC(=O)COc2ccc(F)cc2F)c1C,"0.0316 µM [falling, full curve]","0.0316 µM [falling, full curve, poor fit]"
O=C1CC(c2cccc(Cl)c2)c2cc3c(cc2N1)CCC3 (stereo not given),"8.91 µM [falling, partial curve, poor fit]",–
Cc1ccc(-c2cc(C(F)F)nc(S(C)(=O)=O)n2)cc1,"35.5 µM [falling, partial curve, poor fit]","10 µM [falling, partial curve, poor fit]"
CCCCCCCC(=O)N/N=C(\C)c1ccc(O)cc1O,"35.5 µM [rising, single point]","31.6 µM [rising, single point]"
CCCCCCc1cc2cc(S(=O)(=O)c3ccc(C)cc3)c(=O)oc2cc1O,"20 µM [rising, partial curve]",–
C=CCN1C(=Nc2cccnc2)SCC1(O)c1ccc(C)cc1 (stereo not given),"2.51 µM [rising, full curve]","0.631 µM [rising, full curve]"
CC1CCCN(c2nc3c(c(=O)n(C)c(=O)n3C)n2CCSc2nc3ccccc3s2)C1 (stereo not given),"15.8 µM [rising, partial curve]","11.2 µM [rising, partial curve, poor fit]"
COc1ccc(CNc2ccnc(-c3cccnc3)n2)c(OC)c1,–,"8.91 µM [falling, partial curve]"
COc1cccc(C(=O)N2CCCC(CCC(=O)NCc3ccc(F)c(F)c3)C2)c1 (stereo not given),"3.16 µM [falling, partial curve, poor fit]",–
COc1cccc(-c2nccc(NCCc3c[nH]c4ccc(OC)cc34)n2)c1,"11.2 µM [falling, partial curve]","10 µM [falling, partial curve]"
CCc1ccc(S(=O)(=O)NCCc2csc(-c3cccnc3)n2)s1,"35.5 µM [rising, single point]",–
N=C1c2c(cc(=O)n3c2[nH]c2ccccc23)CN1CCN1CCOCC1,"6.31 µM [falling, partial curve, poor fit]",–
CCN(CC)S(=O)(=O)c1cccc(C(=O)Nc2nc3cc4c(cc3s2)OCCO4)c1,"8.91 µM [rising, partial curve]","35.5 µM [rising, single point]"
COc1cc(/C=C/C(=O)O)cc(S(=O)(=O)Nc2ccccc2Cl)c1OC,"35.5 µM [falling, single point]",–
Cc1[nH]c(=S)[nH]c(=O)c1CCOc1ccccc1,"35.5 µM [falling, partial curve, poor fit]",–
CSc1nnc(Cc2sc(-c3ccccc3)nc2-c2ccccc2)o1,"12.6 µM [rising, single point]","12.6 µM [rising, single point]"
CCCC(=O)Nc1ncnc2c1ncn2C1OC2COP(=O)(O)OC2C1OC(=O)CCC (stereo not given),"35.5 µM [falling, single point]","0.141 µM [falling, single point]"
CC(C)(C)N(Cc1ccccc1)C(=O)c1ccc2c(c1)OCCO2,"10 µM [rising, partial curve]",–
Cc1nnc(N2CCOCC2)c2nn(-c3cccc(Cl)c3)c(C)c12,"0.794 µM [rising, full curve, poor fit]","0.794 µM [rising, full curve, poor fit]"
COc1ccccc1OCc1nc(C#N)c(N2CC(C)CC(C)C2)o1 (stereo not given),"17.8 µM [falling, partial curve]","15.8 µM [falling, partial curve]"
O=C1c2cc3ccccc3c(-c3ccccc3)c2C(=O)N1c1ccccn1,"17.8 µM [rising, single point]",–
COc1ccc(-n2nnnc2SCC(=O)Nc2ccc3c(c2)OCCO3)cc1OC,"35.5 µM [falling, single point]","35.5 µM [falling, single point]"
O=C(Nc1ccc(Cl)cc1)N1CCSc2ccccc21,"17.8 µM [rising, single point]",–
NC(=O)C1CCN(C(=O)COc2cccc3cccnc23)CC1,–,"2.51 µM [falling, full curve, poor fit]"
CNC(=O)c1c(NC(=O)c2ccc(S(=O)(=O)N3CCCCC3C)cc2)sc2c1CCC2 (stereo not given),"35.5 µM [falling, single point]",–
